Laboratory results taken from patent publication EP3049422B1, “INTUMESCENT COATINGS” (MIPA SE, priority 2013, dated 2015).

Assay: Fire test (Brandtest) of impregnated pulp sheets with Bunsen burner
[1] = Zellstoff sheets 3x3 cm, 20%ige Lösung, 300 s, dried, Bunsenbrenner

Compound | Brandtest [1] | Brandtest (cell prints a dash instead of words, water-insoluble salts, tried as suspension) | Brandtest (water-insoluble salt applied as suspension)
O=C1CN(CN2CC(=O)NC2=O)C(=O)N1 [1,1'-(Methylen) bishydantoin Calcium, Calcium(II)N,N'-methylenbishydantoinat] | Brennbar |  | 
O=C1CN(CN2CC(=O)NC2=O)C(=O)N1 [1,1'-(Methylen) bishydantoin Kalium, Kalium(I)N,N'-methylenbishydantoinat] | Starke Intumeszenz |  | 
O=C1CN(CN2CC(=O)NC2=O)C(=O)N1 [1,1'-(Methylen) bishydantoin Natrium, Natrium(I)N,N'-methylenbishydantoinat] | Intumeszenz |  | 
CC(N1CC(=O)NC1=O)N1CC(=O)NC1=O [1,1'-(Methylmethylen) bishydantoin Calcium] [Calcium(II)N,N'-(methylmethylen)bishydantoinat] | Brennbar |  | 
CC(N1CC(=O)NC1=O)N1CC(=O)NC1=O [1,1'-(Methylmethylen) bishydantoin Kalium] [Kalium(I)N,N'-(methylmethylen)bishydantoinat] | Starke Intumeszenz |  | 
CC(N1CC(=O)NC1=O)N1CC(=O)NC1=O [1,1'-(Methylmethylen) bishydantoin Natrium] [Natrium(I)N,N'-(methylmethylen)bishydantoinat] | Starke Intumeszenz |  | 
NC(=O)NC1NC(=O)NC1=O (stereo not drawn) [Allantoin Calcium, Calcium(II)allantoinat] | Brennbar |  | 
NC(=O)NC1NC(=O)NC1=O (stereo not drawn) [Allantoin Kalium, Kalium(I)allantoinat] | Starke Intumeszenz |  | 
NC(=O)NC1NC(=O)NC1=O (stereo not drawn) [Allantoin Natrium, Natrium(I)allantoinat] | Intumeszenz |  | 
O=C1CN(CN2CC(=O)[N-]C2=O)C(=O)[N-]1.OC[P+](CO)(CO)CO.OC[P+](CO)(CO)CO [Bis[tetrakis(hydroxymethyl)phosphonium]N,N'-methylenbishydantoinat] | Selbstlöschend; Starke Rauchbildung |  | 
O=C1CNC(=O)N1 [Hydantoin Calcium, Calcium(II)hydantoinat] |  | - | versagte beim Brandtest
O=C1CNC(=O)N1 [Hydantoin Kalium, Kalium(I)hydantoinat] | Starke Intumeszenz |  | 
O=C1CNC(=O)N1 [Hydantoin Natrium, Natrium(I)hydantoinat] | Intumeszenz |  | 
O=C1CNC(=O)N1 [Hydantoin Tetramethylammonium, Tetramethylammoniumhydantoinat] | Brennbar |  | 
